Laboratory results reported in PubChem BioAssay AID2685 (National Center for Advancing Translational Sciences (NCATS), 2010).
Some of the results follow. The main result of the screen is listed elsewhere. These columns were measured beside it and carry no call. Compounds called inactive in the main read-out are mostly missing here. The note in brackets gives the kind of curve behind each potency; many fits are weak.

Experiment: qHTS Assay for Lipid Storage Modulators in Drosophila S3 Cells;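 for cell number change: cells counted by Cell Tracker Red CMTPX staining in the red channel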
Conditions: BODIPY lipid droplet fluorescence, 18-24 h; for cell number change: measured here: cell count max response, cells fed with added oleic acid
How it was run: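 Drosophila S3 cells loaded with oleic acid (400 uM, as added) and compounds at several concentrations; lipid droplets imaged by 488-nm laser-scanning cytometry, 500–530 nm intensity and object ratio to cell channel. Percent activity normalized to 20 uM Triacsin C.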

[1] = measured here: lipid fluorescence (Fed channel) AC50, cells fed with added oleic acid
[2] = measured here: cell number channel AC50, cells fed with added oleic acid

SMILES | cell number change [%] | AC50 [1] | AC50 [2]
Cc1ccc2c(c1)CCCN2C(=O)c1ccco1 | 25.1 | 20.6 µM [rising, partial curve] | –
COc1ccc(NS(=O)(=O)c2cccc(NC(=O)CCC(=O)c3ccc(Cl)cc3)c2)cc1 | -31.6 | 29.1 µM [falling, single point] | 20.6 µM [falling, single point]
CCCOC(=O)c1cccc(NC(=O)COc2ccc([N+](=O)[O-])cc2)c1 | -10.2 | – | –
O=C(NCc1cccnc1)c1cc(C(=O)C2CC2)c[nH]1 | -22.2 | 0.82 µM [falling, full curve] | –
COC(=O)c1sccc1NC(=O)/C=C\c1ccc(Cl)cc1Cl | – | – | 0.461 µM [rising, full curve]
COc1ccc(C(=O)N(C)CCCC2CCCC2)cc1OC1CCN(C(C)C)CC1 | 1.08 | – | 1.3 µM [falling, full curve, poor fit]
CC(C)CCNC(=O)CCCn1c(=O)[nH]c2ccc(Br)cc2c1=O | -7.67 | 6.51 µM [falling, single point] | –
COc1ccc(OCC(=O)Nc2c(C(=O)N(CCN(C)C)Cc3ccco3)oc3ccccc23)cc1 | 13.7 | 9.2 µM [rising, partial curve] | 2.91 µM [rising, single point]
O=C(O)c1ccc(N2CC3CC(C2)c2cccc(=O)n2C3)c(NS(=O)(=O)c2cccc(C(F)(F)F)c2)c1 (stereo not given) | -8.38 | – | –
COCCNC(=O)C(Cc1c[nH]c2ccccc12)NC(=O)OCc1ccccc1 (stereo not given) | -2.81 | – | –
CC1CC(C#N)N(N(C)C)C1=C(C#N)C#N (stereo not given) | -24.5 | – | 0.00461 µM [falling, full curve]
COc1ccc(Nc2cc(C)nc(N3CCN(C(=O)c4ccc5c(c4)OCO5)CC3)n2)cc1 | -25.3 | – | 2.06 µM [rising, partial curve]
COc1ccc(OC(=O)Nc2ccccc2)cc1 | -4.75 | 29.1 µM [falling, single point] | –
Cc1csc(CN(C)C(=O)CC2C(=O)NCCN2Cc2ccc(-c3ccccc3)cc2)n1 (stereo not given) | 14.8 | 1.64 µM [rising, partial curve, poor fit] | –
O=C(CCC1CCCN(C(=O)c2ccsc2)C1)N1CCN(c2ccccn2)CC1 (stereo not given) | 30.8 | 0.731 µM [rising, full curve, poor fit] | 0.651 µM [rising, full curve, poor fit]
O=C(NC(=S)Nc1ccccc1[N+](=O)[O-])c1ccccc1Cl | 13.9 | 2.91 µM [falling, single point] | –
COc1ccc(N(C)C(=O)CCS(=O)(=O)c2cccc3nonc23)cc1 | -27.1 | 2.59 µM [falling, single point] | 0.13 µM [falling, full curve, poor fit]
CCOC(=O)C1=C2SCCN2C(=O)C(C#N)C1(C)C (stereo not given) | -17 | 4.11 µM [rising, single point] | –
O=S(=O)(Nc1cccc(-c2ccc3nncn3n2)c1)c1cc(F)ccc1F | – | – | 0.0058 µM [rising, full curve, poor fit]
Cc1ccc(NC(=O)N2CCCCCC2)c(C)c1 | -26.2 | – | –
O=C(c1ccco1)N1CCN(S(=O)(=O)c2ccc(S(=O)(=O)NC3CC3)cc2)CC1 | -30.7 | 4.11 µM [falling, partial curve] | 14.6 µM [falling, single point]

SMILES | cell number change [%] | AC50 [1] | AC50 [2]
CC(C)c1nc2sc3c(NCc4ccccc4)ncnc3c2c2c1COC(C)(C)C2 | 25.4 | 2.59 µM [rising, partial curve] | –
O=C(O)CNC(=O)CC1S/C(=N/N=C/c2ccccc2O)NC1=O (stereo not given) | 11.4 | 0.259 µM [rising, full curve, poor fit] | –
CCN1CCc2c(sc(NC(=O)c3ccc(S(=O)(=O)N(CC)c4ccccc4)cc3)c2C(N)=O)C1 | 82.4 | – | 32.6 µM [rising, single point]
CCOC(=O)c1nn(-c2ccccc2)c(C(=O)OCC)c1N | -10.7 | 9.2 µM [rising, partial curve] | –
NC(=O)C1CCN(C(=O)c2ccc3nc(-c4ccccc4)c(-c4ccccc4)nc3c2)CC1 | -5.42 | 2.06 µM [falling, partial curve] | –
O=C(N/C(=C\c1ccco1)C(=O)N1CCCC(CO)C1)c1ccccc1 (stereo not given) | 14.5 | 3.55 µM [falling, full curve, poor fit] | –
O=C(CN1CCN(Cc2ccccc2)CC1)Nc1ccccc1 | -4.19 | 0.13 µM [rising, full curve, poor fit] | –
O=C(NC1CCCc2ccccc21)c1cn2ccccc2n1 (stereo not given) | 24.7 | – | –
O=C(O)c1ccc(S(=O)(=O)N2CCCc3ccccc32)cc1 | -4.96 | – | –
COc1ccc(Nc2ncnc3nc[nH]c23)cc1OC | – | 2.91 µM [falling, single point] | –
Cc1cccc(-c2noc(CN(C)C(=O)c3ccco3)n2)c1 | -15.8 | – | –
CCN(CC)c1ccc(S(=O)(=O)N2CCCCC2)cc1NC(=O)C1=COCCO1 | 50 | – | 6.51 µM [falling, single point]
Cn1c(=O)c2[nH]c(-c3ccccc3Cl)c(O)c2n(C)c1=O | 1.74 | 6.51 µM [falling, single point] | –
COc1cc(NC(=O)c2ccccc2F)c(OC)cc1NC(=O)CN1CCCCC1 | 8.75 | 0.116 µM [rising, single point] | –
CCc1ccc(-c2ccc(SCC(=O)Nc3nnc(C)s3)nn2)cc1 | -24.8 | 5.8 µM [falling, single point] | –
COC(=O)c1ccc(Cc2ccccc2)o1 | – | 0.651 µM [falling, full curve, poor fit] | –
Cc1cc(C)c(NC(=O)CSc2nc3c(c(=O)n2C)SC(C)C3)c(C)c1 (stereo not given) | – | 0.0517 µM [rising, full curve] | –
O=C1c2ccccc2C(=O)c2c1cccc2N1CCN(CCO)CC1 | -36.4 | 3.26 µM [falling, full curve, poor fit] | 1.3 µM [falling, full curve]
O=C(CCCc1ccccc1)Nc1cccc2c1CCCC2 | 30.2 | – | –
O=[N+]([O-])c1ccc(N/N=C2\CC3CC=CC23)c([N+](=O)[O-])c1 (stereo not given) | 4.92 | – | –
Cc1ccc2occ(/C=N/O)c(=O)c2c1 | -7.03 | 2.59 µM [falling, partial curve] | 0.92 µM [falling, full curve, poor fit]

SMILES | cell number change [%] | AC50 [1] | AC50 [2]
Cc1ccc(/C=N/Nc2nnc(Cc3ccccc3)c(=O)[nH]2)o1 | 11.9 | – | –
CCCN(CC(=O)Nc1ccccc1OC)C(=O)c1ccc2[nH]c3c(c2c1)CC(C)CC3 (stereo not given) | -11 | 6.51 µM [falling, full curve, poor fit] | –
O=C(NCc1cccnc1)c1ccc(-c2ccccc2[N+](=O)[O-])o1 | 52.6 | 23.1 µM [rising, single point] | 3.66 µM [rising, partial curve]
CN(C(=O)CSc1nc2ccccc2n1C)C1CCS(=O)(=O)C1 (stereo not given) | 4.2 | – | 0.58 µM [falling, full curve]
CC(C)(C)S(=O)(=O)c1cnc2c(-c3ccsc3)cnn2c1N | -2.09 | – | 0.164 µM [falling, full curve, poor fit]
O=C(Nc1ccc2oc(-c3ccccc3F)nc2c1)c1ccco1 | 18.6 | 6.51 µM [rising, partial curve, poor fit] | 6.51 µM [rising, partial curve, poor fit]
Nc1nc(N)nc(-c2cc(F)ccc2O)n1 | 6.73 | 0.0103 µM [rising, full curve, poor fit] | –
CCN(CC(=O)Nc1ccccc1C(F)(F)F)C(=O)CCc1ccccc1 | 8.97 | 0.291 µM [falling, partial curve] | 0.82 µM [rising, single point]
Cc1ccc(NC(=O)C2CCN(S(=O)(=O)c3ccc4c(c3)CCCC(=O)N4)CC2)cc1N(C)C | -18.3 | 23.1 µM [rising, single point] | –
O=C(CCn1ccc2ccccc21)Nc1ccc(N2CCOCC2)cc1 | 42.6 | 1.3 µM [rising, full curve] | 5.17 µM [rising, single point]
CN(C)C(=O)[C@H]1C[C@H]1[C@@H](O)[C@H](CO)NC(=O)[C@H](COCc1ccccc1)NC(=O)OC(C)(C)C | -0.971 | – | 6.51 µM [falling, single point]
CCn1c(C)c(C)c2cc(C(=O)NCCN3CCCCCC3)ccc21 | -7.65 | 6.51 µM [rising, single point] | –
COc1ccc(C)cc1-n1nnnc1SCC(=O)NC(=O)NCc1ccco1 | – | – | 0.517 µM [rising, partial curve]
O=C(CSc1ccc(F)cc1)Nc1ccccc1Br | -20.3 | – | –
COc1ccc(OC)c(NC(=O)C2CCN(S(=O)(=O)c3ccc4c(c3)CC(C)N4C(C)=O)CC2)c1 (stereo not given) | -21.1 | – | –
O=C(CSc1nnc(CNC(=O)c2c(F)cccc2Cl)o1)NCCc1ccccc1 | 11.6 | 5.17 µM [rising, single point] | –
CC(=O)CC(=O)Nc1ccccc1NC(C)=O | -31.4 | 0.058 µM [falling, full curve] | 0.058 µM [falling, full curve, poor fit]
CCOc1cccc(OCCOCCNC(C)(C)C)c1 | -21.5 | 29.1 µM [falling, single point] | –
CC1(C)NC(=O)N(CCOCCOc2cccc(Oc3ccccc3)c2)C1=O | -22.4 | – | –

Given comma-delimited: four of the compounds above.
SMILES,cell number change [%],AC50 [1],AC50 [2]
O=C(NCc1cccnc1)c1ccc(-c2ccccc2[N+](=O)[O-])o1,52.6,"23.1 µM [rising, single point]","3.66 µM [rising, partial curve]"
CN(C(=O)CSc1nc2ccccc2n1C)C1CCS(=O)(=O)C1 (stereo not given),4.2,–,"0.58 µM [falling, full curve]"
CC(C)(C)S(=O)(=O)c1cnc2c(-c3ccsc3)cnn2c1N,-2.09,–,"0.164 µM [falling, full curve, poor fit]"
O=C(Nc1ccc2oc(-c3ccccc3F)nc2c1)c1ccco1,18.6,"6.51 µM [rising, partial curve, poor fit]","6.51 µM [rising, partial curve, poor fit]"
